Each structure is given as a SMILES string. This continues a long series; more values of the same kind are listed elsewhere.

The chains behind the UniProt entries cited, without tags or fusion partners.
UniProt Q61188, whole entry: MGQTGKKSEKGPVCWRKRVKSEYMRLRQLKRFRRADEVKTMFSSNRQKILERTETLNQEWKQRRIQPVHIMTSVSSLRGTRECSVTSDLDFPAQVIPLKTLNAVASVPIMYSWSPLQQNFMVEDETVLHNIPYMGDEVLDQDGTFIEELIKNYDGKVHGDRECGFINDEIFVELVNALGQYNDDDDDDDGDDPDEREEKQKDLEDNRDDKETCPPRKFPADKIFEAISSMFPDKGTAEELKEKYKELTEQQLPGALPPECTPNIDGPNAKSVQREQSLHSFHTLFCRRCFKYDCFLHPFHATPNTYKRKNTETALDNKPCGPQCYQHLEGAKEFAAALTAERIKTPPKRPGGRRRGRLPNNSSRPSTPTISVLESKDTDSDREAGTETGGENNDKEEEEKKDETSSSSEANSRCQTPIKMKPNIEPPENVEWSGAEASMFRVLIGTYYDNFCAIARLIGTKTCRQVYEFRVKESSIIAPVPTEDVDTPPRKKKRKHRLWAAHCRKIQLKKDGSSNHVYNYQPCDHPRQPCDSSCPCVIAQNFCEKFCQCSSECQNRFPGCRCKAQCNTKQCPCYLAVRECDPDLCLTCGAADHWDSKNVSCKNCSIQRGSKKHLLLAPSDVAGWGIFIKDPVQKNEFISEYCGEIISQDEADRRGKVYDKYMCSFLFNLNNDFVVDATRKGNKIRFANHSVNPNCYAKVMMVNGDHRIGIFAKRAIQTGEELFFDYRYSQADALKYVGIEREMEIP

Common to all, as to format: cell-based
Experiment [1] deals with T1, RNA polymerase II (Mus musculus) (UniProt P08775+Q8CFI7+P97760+A0A3Q4L2S8+Q80UW8+P61219+P62488+Q923G2+P60898+O08740+Q63871+P62876). In words: Inhibition of RNA polymerase II in mouse B16-F1 migrating cells assessed as fold change in Mef2c-RNA stability at 0.1 mM measured by ChIP-seq analysis relative to control cells.
Experiment [2] addresses T1, RNA polymerase II (Mus musculus). In words: Inhibition of RNA polymerase II in mouse B16-F1 migrating cells assessed as fold change in Haus6-RNA stability at 0.1 mM measured by ChIP-seq analysis relative to control cells.
Experiment [3] has the same target. In words: Inhibition of RNA polymerase II in mouse B16-F1 migrating cells assessed as fold change in Chmp1a-RNA stability at 0.1 mM measured by ChIP-seq analysis relative to control cells.
The target is the same in experiment [4]. In words: Inhibition of RNA polymerase II in mouse B16-F1 migrating cells assessed as fold change in Cbln3-RNA stability at 0.1 mM measured by ChIP-seq analysis relative to control cells.
Experiment [5] shares this target. In words: Inhibition of RNA polymerase II in mouse B16-F1 migrating cells assessed as fold change in Mbtps2-RNA stability at 0.1 mM measured by ChIP-seq analysis relative to control cells.
Experiment [6] shares this target. In words: Inhibition of RNA polymerase II in mouse B16-F1 migrating cells assessed as fold change in Bmpr1a-RNA stability at 0.1 mM measured by ChIP-seq analysis relative to control cells.
For experiment [7] the target is unchanged. In words: Inhibition of RNA polymerase II in mouse B16-F1 migrating cells assessed as fold change in Smim20-RNA stability at 0.1 mM measured by ChIP-seq analysis relative to control cells.
The target is the same in experiment [8]. In words: Inhibition of RNA polymerase II in mouse B16-F1 migrating cells assessed as fold change in Casc4-RNA stability at 0.1 mM measured by ChIP-seq analysis relative to control cells.
The target is the same in experiment [9]. In words: Inhibition of RNA polymerase II in mouse B16-F1 migrating cells assessed as fold change in Atp6v0a1-RNA stability at 0.1 mM measured by ChIP-seq analysis relative to control cells.
For experiment [10] the target is unchanged. In words: Inhibition of RNA polymerase II in mouse B16-F1 migrating cells assessed as fold change in D330045A20Rik-RNA stability at 0.1 mM measured by ChIP-seq analysis relative to control cells.
For experiment [11] the target is unchanged. In words: Inhibition of RNA polymerase II in mouse B16-F1 migrating cells assessed as fold change in Sytl2-RNA stability at 0.1 mM measured by ChIP-seq analysis relative to control cells.
Experiment [12] has the same target. In words: Inhibition of RNA polymerase II in mouse B16-F1 migrating cells assessed as fold change in Acbd5-RNA stability at 0.1 mM measured by ChIP-seq analysis relative to control cells.
Experiment [13] concerns the target Histone-lysine N-methyltransferase EZH2 (Mus musculus) (UniProt Q61188). In words: Inhibition of EZH2 in mouse B16-F1 migrating cells assessed as fold change in H3K27me3-buffered regulated G0s2-mRNA expression at 3 uM measured by ChIP-seq analysis relative to control cells.
The target is the same in experiment [14]. In words: Inhibition of EZH2 in mouse B16-F1 migrating cells assessed as fold change in H3K27me3-independent regulated Sod3-mRNA expression at 3 uM measured by ChIP-seq analysis relative to control cells.
The target is the same in experiment [15]. In words: Inhibition of EZH2 in mouse B16-F1 migrating cells assessed as fold change in H3K27me3-buffered regulated Esf1-mRNA expression at 3 uM measured by ChIP-seq analysis relative to control cells.
Experiment [16] shares this target. In words: Inhibition of EZH2 in mouse B16-F1 migrating cells assessed as fold change in H3K27me3-buffered regulated Malt1-mRNA expression at 3 uM measured by ChIP-seq analysis relative to control cells.
For experiment [17] the target is unchanged. In words: Inhibition of EZH2 in mouse B16-F1 migrating cells assessed as fold change in H3K27me3-buffered regulated Gm44806-mRNA expression at 3 uM measured by ChIP-seq analysis relative to control cells.
Experiment [18] has the same target. In words: Inhibition of EZH2 in mouse B16-F1 migrating cells assessed as fold change in H3K27me3-buffered regulated Frs3-mRNA expression at 3 uM measured by ChIP-seq analysis relative to control cells.
The target is the same in experiment [19]. In words: Inhibition of EZH2 in mouse B16-F1 migrating cells assessed as fold change in H3K27me3-buffered regulated C130071C03Rik-mRNA expression at 3 uM measured by ChIP-seq analysis relative to control cells.
For experiment [20] the target is unchanged. In words: Inhibition of EZH2 in mouse B16-F1 migrating cells assessed as fold change in H3K27me3-buffered regulated Mest-mRNA expression at 3 uM measured by ChIP-seq analysis relative to control cells.
Experiment [21] shares this target. In words: Inhibition of EZH2 in mouse B16-F1 migrating cells assessed as fold change in H3K27me3-dependent regulated Gpr37-mRNA expression at 3 uM measured by ChIP-seq analysis relative to control cells.
For experiment [22] the target is unchanged. In words: Inhibition of EZH2 in mouse B16-F1 migrating cells assessed as fold change in H3K27me3-buffered regulated Pcdh17-mRNA expression at 3 uM measured by ChIP-seq analysis relative to control cells.
For experiment [23] the target is unchanged. In words: Inhibition of EZH2 in mouse B16-F1 migrating cells assessed as fold change in H3K27me3-dependent regulated Tet1-mRNA expression at 3 uM measured by ChIP-seq analysis relative to control cells.
The target is the same in experiment [24]. In words: Inhibition of EZH2 in mouse B16-F1 migrating cells assessed as fold change in H3K27me3-dependent regulated Serpine1-mRNA expression at 3 uM measured by ChIP-seq analysis relative to control cells.
The target is the same in experiment [25]. In words: Inhibition of EZH2 in mouse B16-F1 migrating cells assessed as fold change in H3K27me3-buffered regulated Shc4-mRNA expression at 3 uM measured by ChIP-seq analysis relative to control cells.
Experiment [26] shares this target. In words: Inhibition of EZH2 in mouse B16-F1 migrating cells assessed as fold change in H3K27me3-buffered regulated Fgfr3-mRNA expression at 3 uM measured by ChIP-seq analysis relative to control cells.
The target is the same in experiment [27]. In words: Inhibition of EZH2 in mouse B16-F1 migrating cells assessed as fold change in H3K27me3-independent regulated Pou3f1-mRNA expression at 3 uM measured by ChIP-seq analysis relative to control cells.
Experiment [28] shares this target. In words: Inhibition of EZH2 in mouse B16-F1 migrating cells assessed as fold change in H3K27me3-independent regulated Vwf-mRNA expression at 3 uM measured by ChIP-seq analysis relative to control cells.
For experiment [29] the target is unchanged. In words: Inhibition of EZH2 in mouse B16-F1 migrating cells assessed as fold change in H3K27me3-dependent regulated Spry2-mRNA expression at 3 uM measured by ChIP-seq analysis relative to control cells.

As for `OC[C@H]1O[C@@H](n2cnc3cc(Cl)c(Cl)cc32)[C@H](O)[C@@H]1O`, the log2FC was -0.48 in [1]; -0.58 in experiment [2]; 0.4 in [3]; 1.12 in [4]; -0.62 in [5]; -0.49 in experiment [6]. In addition, the log2FC in [7] was 0.5; in experiment [8] it was -0.55; in experiment [9] it was 0.4; in experiment [10] it was -1.26; in [11], -0.43; in [12] it was -0.63.
Turning to `CCCc1cc(C)[nH]c(=O)c1CNC(=O)c1cc(-c2ccnc(N3CCN(C)CC3)c2)cc2c1cnn2C(C)C`, the log2FC in [13] is -1.01; in [14], 1.06; in [15] it was -0.53; in [16], -0.52; in experiment [17], 1.17; in experiment [18], -0.84. The log2FC in experiment [19] is -0.95; in [20], -0.61; in experiment [21], -0.17; in experiment [22], -0.61; in experiment [23], -0.39; in experiment [24] it was 0.39. Besides, the log2FC in experiment [25] was -0.39; in experiment [26] it was -0.5; in experiment [27] it was 1.91; in experiment [28], 0.52; in experiment [29] it was 0.2.

The values are drawn from ChEMBL document CHEMBL5674883, “The Heterochromatin Landscape in Migrating Cells and the Importance of H3K27me3 for Associated Transcriptome Alterations” (Cells, 2018).
